In paper PMC7819943, “Rice protein-binding microarrays: a tool to detect cis-acting elements near promoter regions in rice”:
The other results are listed elsewhere or left out.

Sequences of proteins named here, by UniProt entry; tags and fusion partners are left off.
UniProt Q0JBA9, entry or part of it: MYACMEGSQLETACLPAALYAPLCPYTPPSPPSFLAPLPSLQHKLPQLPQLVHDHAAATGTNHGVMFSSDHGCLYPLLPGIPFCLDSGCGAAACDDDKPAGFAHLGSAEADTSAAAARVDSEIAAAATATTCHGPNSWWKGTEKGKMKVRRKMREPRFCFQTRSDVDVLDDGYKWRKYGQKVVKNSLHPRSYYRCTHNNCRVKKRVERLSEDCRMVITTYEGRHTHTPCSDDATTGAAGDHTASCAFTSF

molecular target: OsWRKY34 (Oryza sativa, UniProt Q0JBA9 1-250); experiment: protein-binding microarray (RPBM); PBS, 2% BSA, 51.3 ng/ul salmon testes DNA, 50 uM zinc acetate, 200 nM TF, 25 C, 1 h; high values mean tight binding; conditions: protein: recombinant; tags: N-terminal polyhistidine and DsRed monomer fusion (pET32a); label: CyDye5-dUTP incorporated in the synthesized complementary strand; 3' TTTTT single-stranded linker to array surface; dsDNA, one strand shown
Method in brief: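 In PBS with 2% BSA, salmon testes DNA and 50 µM zinc acetate, 200 nM protein was incubated on a custom Agilent array at 25 °C for 1 h and then washed off. The array had been made double-stranded by primer extension with Cy5-dUTP and blocked with 2% BSA. The proteins were transcription factors fused N-terminally to polyhistidine and DsRed, expressed in E. coli BL21-CodonPlus and purified on Ni–NTA. The binding signal is per-feature fluorescence intensity (arbitrary units) from an Axon 4000B scanner.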

Sequence	binding signal
GTTACACGTGCCATTATTCATGCCCTTATTATATAAACACCGGAGTCACCTAGTGCAG	8300 fluorescence intensity (a.u.)
CACTATGGCCCGCACGAATTGGCTAACCTTCCAGGCCCAACGGAGTCACCTAGTGCAG	9640 fluorescence intensity (a.u.)
CCTGCCTCGCCATCACCGGCCGCCGATCGAGTACGTGCGCCGGAGTCACCTAGTGCAG	8610 fluorescence intensity (a.u.)
GTTTTCCTTTTTCTTTCTTTTCTTTTATTTTTTTTTCTAACGGAGTCACCTAGTGCAG	9860 fluorescence intensity (a.u.)
AGTTGCTAGGCCCAGATCATCCAATATATTATATATATAGCGGAGTCACCTAGTGCAG	8330 fluorescence intensity (a.u.)
CTATGGTAACCTTTTGCGTGATTGTCCTGTAAATATGTCTCGGAGTCACCTAGTGCAG	8510 fluorescence intensity (a.u.)
CAATTTATCATCCACTTTGCTTTCTTTATAATACGATGTTCGGAGTCACCTAGTGCAG	8120 fluorescence intensity (a.u.)
CACGTGCCTACTACCGCCCAACCTCTGACACGATCGACGACGGAGTCACCTAGTGCAG	8380 fluorescence intensity (a.u.)
CAATGGTCTATATCTACTACTCCTTTGTGTACATCCTTAACGGAGTCACCTAGTGCAG	8320 fluorescence intensity (a.u.)
AAGCCCGGACCTCGTGAACCAACTCCACCCATGGACTACTCGGAGTCACCTAGTGCAG	8940 fluorescence intensity (a.u.)
CGGCGGTGGGCGGGGCTTCTTGTAGGCTGGGCTGTACCAGCGGAGTCACCTAGTGCAG	10200 fluorescence intensity (a.u.)
TTTACCAACCAGATGTTCAGCTCTTCGGTTTGGACCATTTCGGAGTCACCTAGTGCAG	10100 fluorescence intensity (a.u.)
CTGGCCGCACTTCAGCCGCTCGCCTTTTGCTTGGGCCGCGCGGAGTCACCTAGTGCAG	8920 fluorescence intensity (a.u.)
CAACTATTGTATGAATTGACTATTACATTGGCTATAGATGCGGAGTCACCTAGTGCAG	9810 fluorescence intensity (a.u.)
CCACGGTTTCTTTGTCCTTGTTTCTTGTTGATTGCAGGATCGGAGTCACCTAGTGCAG	11900 fluorescence intensity (a.u.)
GAGCCGTCCCCAAGAATCTACTTACTTGCGATTATCCAGGCGGAGTCACCTAGTGCAG	8240 fluorescence intensity (a.u.)
ATACCCGATCTCATTATTATGAACCAGTTATGTAATAACACGGAGTCACCTAGTGCAG	8020 fluorescence intensity (a.u.)
TGTTTCATAGTACTGTAGCGAATAATCCTGTCCGTTCGCTCGGAGTCACCTAGTGCAG	8080 fluorescence intensity (a.u.)
CGCGGCGCCAGTATTCGTCACGCATCTCGTTTTCTCTTTACGGAGTCACCTAGTGCAG	9790 fluorescence intensity (a.u.)
ATCTTTCTTATGCTGGCCATGATCTATGTTGCTGTTTTTGCGGAGTCACCTAGTGCAG	17700 fluorescence intensity (a.u.)
AGAGAGAGATAGAGATCTGAGTTGACCGCCGTCGACTTAACGGAGTCACCTAGTGCAG	8290 fluorescence intensity (a.u.)
AGTTCTTTCATCGTATTCTATTATCTAGCCTTAGCTTTTACGGAGTCACCTAGTGCAG	8140 fluorescence intensity (a.u.)
GGTGTGAATGCATGCATGGCCACATTTCATATTTCATATACGGAGTCACCTAGTGCAG	8050 fluorescence intensity (a.u.)
CGCTTCGTCATCTCGTCGTCGTTTGTGTTCTTGGATTGGGCGGAGTCACCTAGTGCAG	14000 fluorescence intensity (a.u.)
TTATATCCTCACCTTCTCTCTCGCATCCTCTCCTGTATATCGGAGTCACCTAGTGCAG	9430 fluorescence intensity (a.u.)
ATGGGGAGGCGGCGGAGGAGGAGGTCGTGTTCCCGATGGCCGGAGTCACCTAGTGCAG	8490 fluorescence intensity (a.u.)
ATCTTGTTTGGGCTGGGATGGCTGAACCGTATTGATCTACCGGAGTCACCTAGTGCAG	11100 fluorescence intensity (a.u.)

Sequence	binding signal
ATGCCATTTCTCAATTCCTGGAGCTATCAGATTATCATACCGGAGTCACCTAGTGCAG	9170 fluorescence intensity (a.u.)
ACCCAACGTTTGATTGTTCGTCTTATTTAATTTTTTTTTACGGAGTCACCTAGTGCAG	12400 fluorescence intensity (a.u.)
GTTGAGTGTGTATATAAAGGATGTGTGTGCTGCGCTCTGACGGAGTCACCTAGTGCAG	8810 fluorescence intensity (a.u.)
CTGGGTATGTTATCTTCAGCAACAACTTTATTTACCTTCTCGGAGTCACCTAGTGCAG	9620 fluorescence intensity (a.u.)
GAACTGAGATCATGTTCATATGTTGTTTTGCCATCGTATTCGGAGTCACCTAGTGCAG	9140 fluorescence intensity (a.u.)
GGGAGAGGGGAGGGGATTGCCATTGCTGCTGCTGCTAATGCGGAGTCACCTAGTGCAG	8850 fluorescence intensity (a.u.)
GGGATTTCATATATCTGGTTTTGCGGTTGGGGACGATTTTCGGAGTCACCTAGTGCAG	12300 fluorescence intensity (a.u.)
GGTTGGATTTCACACCCCGGGACTCCCACATTTTCAAATTCGGAGTCACCTAGTGCAG	10200 fluorescence intensity (a.u.)
AATTTTGATTTGATTCTGCTGCCTCCGGCGCGCCCCTGATCGGAGTCACCTAGTGCAG	10300 fluorescence intensity (a.u.)
TACACGCTACCTATCTGACAGTATAAACACTCCATTGTACCGGAGTCACCTAGTGCAG	9960 fluorescence intensity (a.u.)
TGGAGGGGAGTGGGATCGCGATCACGGGTGGGGCGTCGGACGGAGTCACCTAGTGCAG	13100 fluorescence intensity (a.u.)
AACAGAGAAGACACTTGATATTGTAAGCTTTGACTAGTTTCGGAGTCACCTAGTGCAG	8350 fluorescence intensity (a.u.)
AACGTACTAATGCATGACACCGTTGACTTTTTTTCAACGTCGGAGTCACCTAGTGCAG	40400 fluorescence intensity (a.u.)
AGTCAGTGACATCTATCTTTTCATCGATGTGTCTATTGCCCGGAGTCACCTAGTGCAG	8640 fluorescence intensity (a.u.)
TATAAACCACATCATCTTAATTGTTCGAACATTTTTTTTCCGGAGTCACCTAGTGCAG	8560 fluorescence intensity (a.u.)
TCCATTCATTAAGTCTATTCGTTATTTGTGTATTGAAGTACGGAGTCACCTAGTGCAG	9100 fluorescence intensity (a.u.)
GAGCGCACCACTACTACCTCCCATCGCTGCGGGTTCCCAGCGGAGTCACCTAGTGCAG	8310 fluorescence intensity (a.u.)
TTCAGTTAATGCTAGTAGTTGCATTTGGTCCAATCTCACACGGAGTCACCTAGTGCAG	10700 fluorescence intensity (a.u.)
ACTAAACTTAGAAGTGCATTCTTGGTCCATTCATGCCCTCCGGAGTCACCTAGTGCAG	8100 fluorescence intensity (a.u.)
CAAAATATTGTATGGTTGTGTCGTATCGCATGTGCATCCGCGGAGTCACCTAGTGCAG	10100 fluorescence intensity (a.u.)
CGAGATATTCACTTTCTTATAATGTTTTACCACTCATTTTCGGAGTCACCTAGTGCAG	8600 fluorescence intensity (a.u.)
AGCATGCACAAACACTCCTTTAATTTGCTTTTTATCTGTCCGGAGTCACCTAGTGCAG	8520 fluorescence intensity (a.u.)
GGGCCTTTTTCTTGTGGTGGTTGTCGTTGTTGTTCATGCCCGGAGTCACCTAGTGCAG	8680 fluorescence intensity (a.u.)
TCATCTAGCATTATACCAACTTCTATATATGTATCTAGATCGGAGTCACCTAGTGCAG	8150 fluorescence intensity (a.u.)
CTATCTACTGTAGGGTTGTGCTTGTTGTAGCTCGTAAATCCGGAGTCACCTAGTGCAG	9130 fluorescence intensity (a.u.)
TGGTTCAAATCTTAACATCCACTAATATTATGCACACATTCGGAGTCACCTAGTGCAG	10000 fluorescence intensity (a.u.)
GAATTTGCAGGTTTAGCCACAGTACGCGTGCGTTGTGTTCCGGAGTCACCTAGTGCAG	8160 fluorescence intensity (a.u.)

Fetched one by one from the list above (four):
Sequence	binding signal
CGCTTCGTCATCTCGTCGTCGTTTGTGTTCTTGGATTGGGCGGAGTCACCTAGTGCAG	14000 fluorescence intensity (a.u.)
CTGGCCGCACTTCAGCCGCTCGCCTTTTGCTTGGGCCGCGCGGAGTCACCTAGTGCAG	8920 fluorescence intensity (a.u.)
GTTACACGTGCCATTATTCATGCCCTTATTATATAAACACCGGAGTCACCTAGTGCAG	8300 fluorescence intensity (a.u.)
GGGAGAGGGGAGGGGATTGCCATTGCTGCTGCTGCTAATGCGGAGTCACCTAGTGCAG	8850 fluorescence intensity (a.u.)
